Drawing on the supplement of paper PMC10849652, this text covers log2 fold change for 39 targets.

Amino acid sequences for entries named in this document (tags omitted). A change or cut given only in a name is not applied to a line headed by its entry.
UniProt Q5JTD0: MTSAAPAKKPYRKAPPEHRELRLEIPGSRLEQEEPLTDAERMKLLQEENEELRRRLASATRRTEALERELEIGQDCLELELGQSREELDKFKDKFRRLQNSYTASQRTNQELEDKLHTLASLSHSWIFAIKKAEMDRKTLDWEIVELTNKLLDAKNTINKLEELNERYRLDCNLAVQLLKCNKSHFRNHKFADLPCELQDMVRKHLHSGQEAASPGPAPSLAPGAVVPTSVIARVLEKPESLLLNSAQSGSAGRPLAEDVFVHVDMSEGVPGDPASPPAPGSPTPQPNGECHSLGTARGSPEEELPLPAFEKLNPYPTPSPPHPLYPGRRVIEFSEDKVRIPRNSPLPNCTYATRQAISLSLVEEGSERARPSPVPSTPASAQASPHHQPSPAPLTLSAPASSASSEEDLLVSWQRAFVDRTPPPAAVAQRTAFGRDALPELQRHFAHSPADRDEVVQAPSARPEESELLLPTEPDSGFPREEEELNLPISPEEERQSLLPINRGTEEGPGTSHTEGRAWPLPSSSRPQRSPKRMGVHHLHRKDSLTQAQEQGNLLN
UniProt Q13488, whole entry, looked up: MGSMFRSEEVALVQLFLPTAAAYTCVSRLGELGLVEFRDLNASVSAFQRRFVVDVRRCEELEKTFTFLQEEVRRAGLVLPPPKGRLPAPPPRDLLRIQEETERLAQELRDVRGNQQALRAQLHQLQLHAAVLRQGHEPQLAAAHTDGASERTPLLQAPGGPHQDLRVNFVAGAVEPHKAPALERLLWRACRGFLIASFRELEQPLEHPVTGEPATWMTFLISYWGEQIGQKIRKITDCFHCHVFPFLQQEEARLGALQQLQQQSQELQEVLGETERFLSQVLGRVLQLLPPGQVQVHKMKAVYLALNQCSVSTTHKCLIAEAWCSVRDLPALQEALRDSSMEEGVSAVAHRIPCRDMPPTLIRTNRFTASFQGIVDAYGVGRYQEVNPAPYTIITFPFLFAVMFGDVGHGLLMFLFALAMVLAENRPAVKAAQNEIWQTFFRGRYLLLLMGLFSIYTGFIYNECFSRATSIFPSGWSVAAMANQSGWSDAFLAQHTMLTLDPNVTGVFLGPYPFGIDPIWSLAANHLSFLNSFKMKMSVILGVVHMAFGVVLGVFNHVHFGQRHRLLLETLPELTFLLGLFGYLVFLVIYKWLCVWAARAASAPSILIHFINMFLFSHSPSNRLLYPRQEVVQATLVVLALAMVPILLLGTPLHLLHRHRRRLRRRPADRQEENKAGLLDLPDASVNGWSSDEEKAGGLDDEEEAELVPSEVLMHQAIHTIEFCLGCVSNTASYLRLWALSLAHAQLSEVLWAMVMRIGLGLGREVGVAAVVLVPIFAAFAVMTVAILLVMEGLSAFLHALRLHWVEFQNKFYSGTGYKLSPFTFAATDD
UniProt Q96FV9: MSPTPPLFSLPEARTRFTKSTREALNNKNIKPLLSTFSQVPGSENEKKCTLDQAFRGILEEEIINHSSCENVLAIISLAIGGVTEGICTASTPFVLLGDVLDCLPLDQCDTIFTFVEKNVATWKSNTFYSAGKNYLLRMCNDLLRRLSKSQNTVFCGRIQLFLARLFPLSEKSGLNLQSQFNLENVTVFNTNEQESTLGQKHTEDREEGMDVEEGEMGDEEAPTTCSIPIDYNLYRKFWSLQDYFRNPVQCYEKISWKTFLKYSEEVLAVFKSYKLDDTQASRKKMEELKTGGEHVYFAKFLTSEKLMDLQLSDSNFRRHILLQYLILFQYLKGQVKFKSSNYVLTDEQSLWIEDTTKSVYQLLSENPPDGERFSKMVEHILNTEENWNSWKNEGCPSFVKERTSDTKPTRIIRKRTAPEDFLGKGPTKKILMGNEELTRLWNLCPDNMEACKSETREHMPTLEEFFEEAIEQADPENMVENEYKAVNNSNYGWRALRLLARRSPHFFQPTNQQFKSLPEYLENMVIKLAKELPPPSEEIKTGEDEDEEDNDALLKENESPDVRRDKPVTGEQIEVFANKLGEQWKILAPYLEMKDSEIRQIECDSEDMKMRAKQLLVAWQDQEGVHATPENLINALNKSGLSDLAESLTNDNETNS
UniProt Q9NU19: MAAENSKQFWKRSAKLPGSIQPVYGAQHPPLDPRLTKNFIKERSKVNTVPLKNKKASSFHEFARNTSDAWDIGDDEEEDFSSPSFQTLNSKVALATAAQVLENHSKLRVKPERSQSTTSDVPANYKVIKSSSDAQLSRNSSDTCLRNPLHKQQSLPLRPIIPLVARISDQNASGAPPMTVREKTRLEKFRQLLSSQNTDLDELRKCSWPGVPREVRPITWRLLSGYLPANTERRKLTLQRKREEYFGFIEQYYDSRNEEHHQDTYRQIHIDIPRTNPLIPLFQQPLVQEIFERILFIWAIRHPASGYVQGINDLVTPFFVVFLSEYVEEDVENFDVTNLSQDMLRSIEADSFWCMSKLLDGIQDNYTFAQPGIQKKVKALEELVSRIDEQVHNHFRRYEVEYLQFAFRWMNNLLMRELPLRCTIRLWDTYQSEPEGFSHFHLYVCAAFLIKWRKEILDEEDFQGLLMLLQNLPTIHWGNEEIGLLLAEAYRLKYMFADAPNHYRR
UniProt Q03167: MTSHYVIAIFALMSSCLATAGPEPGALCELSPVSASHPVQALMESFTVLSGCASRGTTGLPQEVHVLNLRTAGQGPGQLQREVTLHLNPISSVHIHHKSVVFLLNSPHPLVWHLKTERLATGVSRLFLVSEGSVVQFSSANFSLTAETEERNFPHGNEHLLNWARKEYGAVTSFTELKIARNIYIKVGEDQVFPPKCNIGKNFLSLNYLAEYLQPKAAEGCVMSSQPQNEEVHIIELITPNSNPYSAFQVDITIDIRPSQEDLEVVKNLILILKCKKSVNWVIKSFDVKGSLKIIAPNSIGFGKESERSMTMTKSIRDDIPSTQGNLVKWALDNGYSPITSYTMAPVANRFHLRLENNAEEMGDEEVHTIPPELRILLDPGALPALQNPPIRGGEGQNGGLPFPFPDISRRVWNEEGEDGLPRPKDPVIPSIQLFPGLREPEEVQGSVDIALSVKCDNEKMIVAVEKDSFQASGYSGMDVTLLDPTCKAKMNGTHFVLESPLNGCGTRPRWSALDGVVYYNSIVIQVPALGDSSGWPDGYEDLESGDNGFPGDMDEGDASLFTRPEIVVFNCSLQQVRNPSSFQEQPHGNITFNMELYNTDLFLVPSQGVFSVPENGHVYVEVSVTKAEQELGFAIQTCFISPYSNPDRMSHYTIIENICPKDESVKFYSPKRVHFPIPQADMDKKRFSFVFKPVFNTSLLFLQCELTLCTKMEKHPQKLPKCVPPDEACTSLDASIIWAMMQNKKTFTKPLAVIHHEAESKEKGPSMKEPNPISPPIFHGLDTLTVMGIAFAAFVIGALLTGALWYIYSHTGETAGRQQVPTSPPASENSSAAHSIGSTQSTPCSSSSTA
UniProt O43493: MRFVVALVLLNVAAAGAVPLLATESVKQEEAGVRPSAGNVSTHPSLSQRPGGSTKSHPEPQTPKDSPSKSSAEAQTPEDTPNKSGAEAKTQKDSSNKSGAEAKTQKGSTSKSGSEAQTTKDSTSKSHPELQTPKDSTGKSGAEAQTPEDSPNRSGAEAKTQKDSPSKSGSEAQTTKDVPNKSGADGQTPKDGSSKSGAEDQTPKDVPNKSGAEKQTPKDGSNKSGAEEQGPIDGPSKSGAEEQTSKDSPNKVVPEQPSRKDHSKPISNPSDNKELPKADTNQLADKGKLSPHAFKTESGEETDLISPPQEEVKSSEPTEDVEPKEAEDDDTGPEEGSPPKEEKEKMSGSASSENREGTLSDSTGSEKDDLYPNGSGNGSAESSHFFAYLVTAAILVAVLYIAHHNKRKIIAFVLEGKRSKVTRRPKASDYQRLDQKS
UniProt Q15814: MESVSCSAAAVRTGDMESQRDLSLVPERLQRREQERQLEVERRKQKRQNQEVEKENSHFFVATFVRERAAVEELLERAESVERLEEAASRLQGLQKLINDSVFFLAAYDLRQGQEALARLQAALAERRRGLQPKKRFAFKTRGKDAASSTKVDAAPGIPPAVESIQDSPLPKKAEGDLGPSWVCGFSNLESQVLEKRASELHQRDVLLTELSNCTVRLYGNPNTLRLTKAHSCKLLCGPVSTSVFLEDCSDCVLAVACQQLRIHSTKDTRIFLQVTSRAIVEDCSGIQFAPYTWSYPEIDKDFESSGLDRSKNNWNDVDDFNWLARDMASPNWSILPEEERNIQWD
UniProt P02787, whole entry, looked up: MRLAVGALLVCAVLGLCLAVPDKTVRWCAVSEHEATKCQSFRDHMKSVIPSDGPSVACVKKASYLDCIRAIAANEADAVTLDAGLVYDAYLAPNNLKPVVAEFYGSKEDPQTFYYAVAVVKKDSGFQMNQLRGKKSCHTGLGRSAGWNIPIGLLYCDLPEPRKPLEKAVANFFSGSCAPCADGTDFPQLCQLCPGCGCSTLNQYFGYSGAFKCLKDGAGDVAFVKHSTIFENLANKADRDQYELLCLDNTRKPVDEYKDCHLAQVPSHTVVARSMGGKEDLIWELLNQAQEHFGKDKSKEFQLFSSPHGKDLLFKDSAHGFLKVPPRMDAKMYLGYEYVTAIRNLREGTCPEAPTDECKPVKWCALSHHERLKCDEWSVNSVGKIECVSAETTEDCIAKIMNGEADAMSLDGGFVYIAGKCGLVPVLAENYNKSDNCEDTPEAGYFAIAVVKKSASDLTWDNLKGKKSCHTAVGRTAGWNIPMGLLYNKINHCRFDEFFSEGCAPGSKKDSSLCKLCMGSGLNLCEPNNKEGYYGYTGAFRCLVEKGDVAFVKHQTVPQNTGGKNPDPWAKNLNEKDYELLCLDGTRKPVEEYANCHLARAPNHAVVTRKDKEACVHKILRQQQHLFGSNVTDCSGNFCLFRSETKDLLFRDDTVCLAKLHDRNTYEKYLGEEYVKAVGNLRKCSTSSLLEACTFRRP
UniProt O95551: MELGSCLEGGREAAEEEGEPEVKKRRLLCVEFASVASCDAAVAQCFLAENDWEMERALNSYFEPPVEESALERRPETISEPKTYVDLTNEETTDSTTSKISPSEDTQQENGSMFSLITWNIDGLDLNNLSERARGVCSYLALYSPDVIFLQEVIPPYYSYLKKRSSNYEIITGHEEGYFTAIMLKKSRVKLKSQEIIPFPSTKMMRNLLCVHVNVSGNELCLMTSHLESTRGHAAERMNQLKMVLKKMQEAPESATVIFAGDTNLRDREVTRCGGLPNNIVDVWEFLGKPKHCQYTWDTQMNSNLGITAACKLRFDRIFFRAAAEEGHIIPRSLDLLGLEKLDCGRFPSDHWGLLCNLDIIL
UniProt O14925: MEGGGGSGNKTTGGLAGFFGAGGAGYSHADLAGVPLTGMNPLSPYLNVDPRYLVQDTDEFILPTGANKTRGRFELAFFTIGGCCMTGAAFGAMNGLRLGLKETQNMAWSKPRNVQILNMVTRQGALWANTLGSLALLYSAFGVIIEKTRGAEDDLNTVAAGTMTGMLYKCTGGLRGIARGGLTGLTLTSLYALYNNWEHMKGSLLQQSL
UniProt Q8WVM0: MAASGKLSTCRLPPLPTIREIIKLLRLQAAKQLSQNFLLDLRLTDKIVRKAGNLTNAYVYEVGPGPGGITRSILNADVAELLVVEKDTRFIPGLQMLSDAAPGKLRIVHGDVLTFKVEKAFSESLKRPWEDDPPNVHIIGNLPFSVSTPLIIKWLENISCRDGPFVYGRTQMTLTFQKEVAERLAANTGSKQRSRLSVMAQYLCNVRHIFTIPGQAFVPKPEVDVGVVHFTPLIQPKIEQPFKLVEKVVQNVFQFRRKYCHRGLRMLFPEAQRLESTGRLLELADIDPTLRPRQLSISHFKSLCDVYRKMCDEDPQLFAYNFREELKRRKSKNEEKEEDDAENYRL
UniProt Q9Y5J9: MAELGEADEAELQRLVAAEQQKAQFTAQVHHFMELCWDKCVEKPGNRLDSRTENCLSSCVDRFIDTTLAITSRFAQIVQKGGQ
UniProt Q99081: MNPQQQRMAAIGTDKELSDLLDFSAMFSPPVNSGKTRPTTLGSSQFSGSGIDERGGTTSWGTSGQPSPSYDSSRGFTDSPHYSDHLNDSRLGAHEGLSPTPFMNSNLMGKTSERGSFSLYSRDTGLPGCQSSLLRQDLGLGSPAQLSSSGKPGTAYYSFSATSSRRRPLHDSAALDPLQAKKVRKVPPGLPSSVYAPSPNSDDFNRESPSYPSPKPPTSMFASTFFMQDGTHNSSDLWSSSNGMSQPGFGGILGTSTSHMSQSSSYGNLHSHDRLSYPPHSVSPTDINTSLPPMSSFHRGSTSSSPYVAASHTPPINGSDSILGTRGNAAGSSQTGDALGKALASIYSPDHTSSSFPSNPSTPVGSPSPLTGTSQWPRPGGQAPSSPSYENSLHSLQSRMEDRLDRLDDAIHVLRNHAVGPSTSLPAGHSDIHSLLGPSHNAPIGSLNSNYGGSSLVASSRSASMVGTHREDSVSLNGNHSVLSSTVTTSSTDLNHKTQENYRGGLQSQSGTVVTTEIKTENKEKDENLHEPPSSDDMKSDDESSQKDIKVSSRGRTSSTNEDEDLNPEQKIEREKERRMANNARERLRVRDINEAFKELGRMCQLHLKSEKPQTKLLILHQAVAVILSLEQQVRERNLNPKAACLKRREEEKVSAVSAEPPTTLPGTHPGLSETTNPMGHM

The other results are listed elsewhere or left out.

Compound in the first experiment: C1=CC(=C(C=C1Cl)C2=NC3=NC=CN=C3C(=N2)NC4=CC=NC=C4)F
Briefly: log2 fold change, soluble protein after heating vs DMSO (PISA); higher = thermal stabilisation; K562 cells, 10 uM, 30 min; active = over 0.2 and 3.5 SD of the protein, either way, in both replicates (recomputed). The gist of the method: (§1)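 Aliquots of K562 cells (2×10^6 cells/mL) treated with 10 μM compound for 30 min were heated for 3 min over 48°C-58°C. After pooling and extraction in PBS with 0.5% NP-40 at 4°C, soluble protein from a 21,000xg, 90 min spin was quantified by TMTpro 16plex LC-MS/MS with channel sums equalised. Thermal stability is expressed against control samples, from duplicates, as a log2 fold change.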
As for TJAP1 (UniProt Q5JTD0), the log2 fold change is inactive: -0.017.

With TCEA1 (UniProt P23193), the log2 fold change was inactive: 0.085.

With TIMM50 isoform 2 (UniProt Q3ZCQ8), the log2 fold change is inactive: 0.026.

Turning to THUMPD1 (UniProt Q9NXG2), the log2 fold change was inactive: 0.055.

As to THBS1 (UniProt P07996), the log2 fold change was inactive: -0.011.

Take TCIRG1 (UniProt Q13488): the log2 fold change is inactive: -0.303.

Consider TCF3 (UniProt P15923), for which the log2 fold change is inactive: 0.029.

For THOC1 (UniProt Q96FV9), the log2 fold change was inactive: -0.113.

Consider THOC2 (UniProt Q8NI27), for which the log2 fold change was inactive: -0.137.

On to THNSL1 (UniProt Q8IYQ7), for which the log2 fold change was inactive: 0.062.

Take TBC1D22B (UniProt Q9NU19): the log2 fold change was inactive: 0.09.

For TLCD4 (UniProt Q96MV1), the log2 fold change was inactive: 0.

For THOC7 (UniProt Q6I9Y2), the log2 fold change was inactive: -0.009.

TKFC (UniProt Q3LXA3): the log2 fold change is inactive: 0.024.

Consider TGFBR3 (UniProt Q03167), for which the log2 fold change is inactive: -0.03.

Turning to TKT isoform 2 (UniProt P29401), the log2 fold change is inactive: 0.029.

Consider TDRKH (UniProt Q9Y2W6), for which the log2 fold change is inactive: -0.165.

For TGOLN2 isoform 7 (UniProt O43493), the log2 fold change was inactive: 0.03.

Turning to TBCC (UniProt Q15814), the log2 fold change was inactive: 0.048.

Turning to TF (UniProt P02787), the log2 fold change was inactive: 0.122.

With TDP2 isoform 2 (UniProt O95551), the log2 fold change was inactive: -0.013.

As to TERF2 (UniProt Q15554), the log2 fold change is inactive: -0.251.

With THOC6 (UniProt Q86W42), the log2 fold change was inactive: 0.024.

On to TBCB (UniProt Q99426), for which the log2 fold change is inactive: 0.076.

For the target TIMMDC1 (UniProt Q9NPL8), the log2 fold change was inactive: 0.051.

With TBCE (UniProt Q15813), the log2 fold change was inactive: -0.115.

TK2 isoform 6 (UniProt O00142): the log2 fold change was inactive: 0.122.

For the target TIMM23 (UniProt O14925), the log2 fold change was inactive: 0.006.

Consider TET1 (UniProt Q8NFU7), for which the log2 fold change is inactive: 0.093.

Consider TCP1 (UniProt P17987), for which the log2 fold change was inactive: 0.024.

Regarding TBL1X (UniProt O60907), the log2 fold change was inactive: 0.016.

As for TFB1M (UniProt Q8WVM0), the log2 fold change is inactive: -0.237.

TBL3 (UniProt Q12788): the log2 fold change was inactive: -0.179.

As to TIMM8B (UniProt Q9Y5J9), the log2 fold change is inactive: 0.539.

As for TBC1D4 (UniProt O60343), the log2 fold change is inactive: 0.03.

In the case of TGM2 (UniProt P21980), the log2 fold change was inactive: 0.061.

On to TBL1XR1 (UniProt Q9BZK7), for which the log2 fold change was inactive: 0.181.

TESC (UniProt Q96BS2): the log2 fold change was inactive: 0.075.

As to TCF12 isoform 3 (UniProt Q99081), the log2 fold change was inactive: -0.027.

Compound in another experiment: C1=CC(=CC=C1C2=NC3=C(N2)C=C(C=C3)C(=O)N)OC4=CC=C(C=C4)Cl
The experiment is described as above. The gist of the method: as §1
Regarding TJAP1 (UniProt Q5JTD0), the log2 fold change is inactive: 0.001.

Turning to TCEA1 (UniProt P23193), the log2 fold change was inactive: -0.001.

TIMM50 isoform 2 (UniProt Q3ZCQ8): the log2 fold change was inactive: 0.014.

THUMPD1 (UniProt Q9NXG2): the log2 fold change is inactive: -0.014.

As for THBS1 (UniProt P07996), the log2 fold change is inactive: 0.127.

Regarding TCIRG1 (UniProt Q13488), the log2 fold change was inactive: 0.085.

Regarding TCF3 (UniProt P15923), the log2 fold change is inactive: 0.049.

For THOC1 (UniProt Q96FV9), the log2 fold change is inactive: 0.021.

Regarding THOC2 (UniProt Q8NI27), the log2 fold change was inactive: -0.008.

With THNSL1 (UniProt Q8IYQ7), the log2 fold change was inactive: 0.058.

For TBC1D22B (UniProt Q9NU19), the log2 fold change is inactive: 0.

Consider TLCD4 (UniProt Q96MV1), for which the log2 fold change was inactive: 0.004.

With THOC7 (UniProt Q6I9Y2), the log2 fold change was inactive: 0.036.

Consider TKFC (UniProt Q3LXA3), for which the log2 fold change was inactive: -0.004.

For the target TGFBR3 (UniProt Q03167), the log2 fold change was inactive: 0.053.

For TKT isoform 2 (UniProt P29401), the log2 fold change was inactive: -0.012.

As to TDRKH (UniProt Q9Y2W6), the log2 fold change is inactive: 0.019.

Regarding TGOLN2 isoform 7 (UniProt O43493), the log2 fold change is inactive: 0.01.

With TBCC (UniProt Q15814), the log2 fold change is inactive: 0.025.

Consider TF (UniProt P02787), for which the log2 fold change is inactive: 0.15.

Take TDP2 isoform 2 (UniProt O95551): the log2 fold change was inactive: 0.052.

Regarding TERF2 (UniProt Q15554), the log2 fold change is inactive: -0.007.

For THOC6 (UniProt Q86W42), the log2 fold change was inactive: -0.011.

With TBCB (UniProt Q99426), the log2 fold change was inactive: -0.017.

Regarding TIMMDC1 (UniProt Q9NPL8), the log2 fold change is inactive: -0.019.

TBCE (UniProt Q15813): the log2 fold change was inactive: -0.004.

For the target TK2 isoform 6 (UniProt O00142), the log2 fold change was inactive: -0.034.

As for TIMM23 (UniProt O14925), the log2 fold change was inactive: 0.019.

Turning to TET1 (UniProt Q8NFU7), the log2 fold change was inactive: -0.091.

As to TCP1 (UniProt P17987), the log2 fold change is inactive: -0.012.

With TBL1X (UniProt O60907), the log2 fold change was inactive: 0.021.

As to TFB1M (UniProt Q8WVM0), the log2 fold change is inactive: 0.037.

In the case of TBL3 (UniProt Q12788), the log2 fold change is inactive: 0.028.

Turning to TIMM8B (UniProt Q9Y5J9), the log2 fold change was inactive: -0.051.

On to TBC1D4 (UniProt O60343), for which the log2 fold change is inactive: 0.033.

As for TGM2 (UniProt P21980), the log2 fold change was inactive: -0.021.

Turning to TBL1XR1 (UniProt Q9BZK7), the log2 fold change is inactive: 0.043.

As for TESC (UniProt Q96BS2), the log2 fold change was inactive: 0.126.

For TCF12 isoform 3 (UniProt Q99081), the log2 fold change was inactive: 0.036.
